Data: US20080102476A1, “Analyzing Histamine H4 Receptor-Mediated Effects In Whole Blood” (priority 2003, published 2008)
At least one compound was matched to its structure with a doubt left.

How the values were obtained:
Assay type in all cases: cell-based
[1] = test system: human eosinophils; experiment: Eosinophil shape change in human PMNL by flow cytometry (GAFS assay); conditions: antagonist 10 μM, 1 μM histamine 10 min
Method: PMNL were prepared as described above and cells were resuspended in assay buffer (PBS containing 10 mM Ca^2+ and Mg^2+, 10 mM HEPES, 10 mM glucose, and 0.1% BSA, pH 7.2-7.4). Aliquots of cells (5×10^5 PMNL in 80 μl assay buffer) were pretreated with histamine receptor analogues (diphenhydramine, ranitidine, thioperamide, Compound A or H3 receptor antagonist) for 10 min at room temperature before addition of histamine or chemokines in 1.2-ml polypropylene cluster tubes (Costar, Cambridge, Mass.) in a final volume of 100 μl. The tubes were placed in a 37° C. water bath for 10 min (or as indicated), after which they were transferred to an ice-water bath, and 250 μl of ice-cold fixative (2% paraformaldehyde in PBS) was added to terminate the reaction and to maintain the cell shape change. […] Cell shape change was monitored in forward scatter signals. To identify eosinophils and neutrophils in PMNL, cells were stained on ice for 30 min with saturating concentrations of FITC-conjugated anti-CCR3 or anti-CD16 antibodies, which are specific for eosinophils or neutrophils, respectively. Samples after antibody staining were analyzed in flow cytometry.

[2] = test system: human eosinophils; experiment: Cell surface expression of adhesion molecules on eosinophils by flow cytometry; conditions: antagonist 10 μM
Method: Purified eosinophils were used to study cell surface expression of adhesion molecules. Eosinophils were resuspended in PBS containing 10 mM Ca^2+ and Mg^2+, 10 mM HEPES, 10 mM glucose, and 0.1% BSA, pH 7.2-7.4. Aliquots of cells (5×10^5 PMNL) were pretreated with histamine receptor analogues (as described above) for 10 min before addition of histamine or chemokines in 1.2-ml polypropylene cluster tubes (Costar, Cambridge, Mass.) in a final volume of 100 μl. The tubes were placed in a 37° C. water bath for 10 min (or as indicated), after which they were transferred to an ice-water bath, and 250 μl of ice-cold fixative (0.5% paraformaldehyde in PBS) was added. Samples were then incubated on ice for 30 min with saturating concentration of either FITC or phycoerytherine-conjugated anti-CD11a, anti-CD11b or anti-CD54 antibodies, washed, and then analyzed by flow cytometry.

[3] = test system: purified human eosinophils; experiment: In vitro eosinophil chemotaxis assay (Transwell); conditions: antagonist 10 μM in both chambers
Method: Transwells (Costar, Cambridge, Mass.) with 5 μm pore size were coated with 100 μl of 100 ng/ml human fibronectin (Sigma) for 2 h at room temperature. After removal of excess fibronectin, 600 μl of RPMI-1640 medium containing 0.5% BSA and different concentrations of histamine (0.01-100 μM) was added to the bottom chamber, Eosinophils (2×10^5/well) were added to the top chamber. Histamine receptor analogues (diphenhydramine, ranitidine, thioperamide, Compound A or Compound B) were added to both the top and bottom chambers to a final concentration of 10 μM or at other concentration as stated in figure legends. The plates were incubated for 2 h at 37° C. and the number of cells migrated to the bottom chamber was counted for 1 min using flow cytometer.

[4] = test system: eosinophils in human whole blood; experiment: Whole blood eosinophil shape change assay with ranitidine co-treatment (Example 1B); conditions: FIG. 10
Method: In this example, starting materials were obtained as described in Example 1A. Human whole blood samples were used to study eosinophil shape change response. Human blood samples collected from healthy donors were treated with 3.8% tri-sodium citrate as anti-coagulator (or other anti-coagulators) and centrifuges at 300 rpm. The samples were used for experiments within 1 hour. […] The cell shape change was analyzed on a FACScan flow cytometer (Becton Dickinson, Mountain View, Calif.). Eosinophils were gated based on their high autofluorescence relative to neutrophils and shape change was monitored in forward scatter signals. Data were acquired for 1500 high-fluorescence eosinophil events. Results are expressed as the percentage increase in FSC compared to unstimulated cells.

SMILES: CNC(=C[N+](=O)[O-])NCCSCc1ccc(CN(C)C)o1 [ranitidine]
- effect on histamine-induced eosinophil shape change [1]: did not show any inhibitory effects
- effect on histamine-induced up-regulation of CD11b/CD18 and CD54 expression [2]: ineffective
- effect on histamine-induced eosinophil chemotaxis [3]: minimal
- effect on eosinophil shape change observed upon treatment with histamine [4]: increased
